Assay results: PubChem BioAssay AID216 (DTP/NCI, 2004)
The list does not hold the whole screen: it is rich in T/C values a quarter to a half above the control, in often repeated tests (any T/C) and in doses without a T/C. Further doses and runs are listed elsewhere. T/C gives the treated animals as a percentage of the vehicle group. Some entries give survivors of the animals treated and no T/C: the source files T/C as zero there, which appears to mark a toxic dose or a test without result, not a measured value. Some doses without a T/C left all or most animals alive at the check, yet need not have been tolerated: the source hardly ever lists a survival T/C far under the control, and the zero likely stands for such cases as well. Counts of survivors are from the toxicity check (mostly the fifth day) where no day follows; animals may have died later. Schedule codes are those of the source, taken here to give the interval after Q, in days (D) or hours (H), and the number of doses after X. Some schedules carry Z or #; the key to these is not given. Some entries were tested several times; the values are given in rising order. Where survival is the endpoint, this PubChem deposit counts one and a half times the control or more as active, and values a quarter to a half above the control carry no call in these data; other NCI protocols may use other cut-offs. Some T/C values are followed by the survivors on the day toxicity was checked, most often the fifth; without a count, all were alive then.

Test system: BDF1 mice, P288 leukemia ip, survival T/C
Test: NCI In Vivo Anticancer Drug Screen. Data for tumor model P288 Lymphocytic Leukemia (intraperitoneal) in B6D2F1 (BDF1) mice
Conditions: T/C endpoint: survival time, mean or median, higher T/C = longer survival
Description: The antitumor activity of compounds was measured in mice bearing transplantable tumors. Survival or tumor size were measured and the results are expressed as the measurement made in the treated group (T) divided by the measurement made in the vehicle treated control group (C). The tumor model used in this assay is P288 Lymphocytic Leukemia (intraperitoneal) in B6D2F1 (BDF1) mice

[1] = dose: 0.5 mg/kg/injection, schedule: Q01DX010 (ip), vehicle: saline
[2] = dose: 2.5 mg/kg/injection, schedule: Q01DX Z (ip), vehicle: carboxymethylcellulose (CMC)
[3] = dose: 5.0 mg/kg/injection, schedule: Q01DX Z (ip), vehicle: carboxymethylcellulose (CMC)
[4] = dose: 10.0 mg/kg/injection, schedule: Q01DX Z (ip), vehicle: carboxymethylcellulose (CMC)

SMILES: CN(C)CC(=O)c1ccc(O)c(O)c1
- T/C (dose: 31.25 mg/kg/injection, schedule: Q01DX Z (ip), vehicle: saline): 131 % of control
- T/C (dose: 62.5 mg/kg/injection, schedule: Q01DX Z (ip), vehicle: saline): 131 % of control
- T/C (dose: 125.0 mg/kg/injection, schedule: Q01DX Z (ip), vehicle: saline): 134 % of control
- T/C (dose: 200.0 mg/kg/injection, schedule: Q01DX010 (ip), vehicle: saline): 133 % of control
- T/C (dose: 250.0 mg/kg/injection, schedule: Q01DX Z (ip), vehicle: saline): 148 % of control
- T/C (dose: 300.0 mg/kg/injection, schedule: Q01DX010 (ip), vehicle: saline): 127 % of control
- T/C (dose: 450.0 mg/kg/injection, schedule: Q01DX010 (ip), vehicle: saline): 133 % of control
- survivor count (dose: 1000.0 mg/kg/injection, schedule: Q01DX Z (ip), vehicle: saline): 0 of 6

SMILES: N#C[C@@H]1C2C=CC(CC2)[C@H]1C#N
- survivor count [1]: 6 of 6
- survivor count (dose: 1.0 mg/kg/injection, schedule: Q01DX010 (ip), vehicle: saline): 6 of 6
- survivor count (dose: 2.0 mg/kg/injection, schedule: Q01DX010 (ip), vehicle: saline): 6 of 6
- T/C (dose: 250.0 micrograms/kg/injection, schedule: Q01DX010 (ip), vehicle: saline): 127 % of control

SMILES: COc1cc(-c2ccc(Nc3ccccc3C(=O)O)c(OC)c2)ccc1Nc1ccccc1C(=O)O
- T/C (dose: 50.0 mg/kg/injection, schedule: Q01DX010 (ip), vehicle: saline): 133 % of control

SMILES: N#[N+]c1cnc([O-])[nH]c1=O
- T/C (dose: 1.25 mg/kg/injection, schedule: Q01DX010 (ip), vehicle: saline): 133 % of control
- T/C (dose: 2.5 mg/kg/injection, schedule: Q01DX010 (ip), vehicle: saline): 135 % of control
- T/C [2]: 137 % of control
- T/C [3]: 144 and 145 % of control
- survivor count [3]: 6 of 6
- T/C (dose: 10.0 mg/kg/injection, schedule: Q01DX010 (ip), vehicle: saline): 142 % of control
- T/C [4]: 127 % of control [5 of 6 alive]
- survivor count [4]: 5 of 6
- survivor count (dose: 20.0 mg/kg/injection, schedule: Q01DX Z (ip), vehicle: carboxymethylcellulose (CMC)): 0 of 6 and 1 of 6
- survivor count (dose: 40.0 mg/kg/injection, schedule: Q01DX Z (ip), vehicle: carboxymethylcellulose (CMC)): 0 of 6

SMILES: CC[C@]1(O)C[C@H]2CN(CCc3c([nH]c4ccccc34)[C@@](C(=O)OC)(c3cc4c(cc3OC)N(C=O)[C@H]3[C@@](O)(C(=O)OC)[C@H](OC(C)=O)[C@]5(CC)C=CCN6CC[C@]43[C@@H]65)C2)C1
- T/C (dose: 0.03 mg/kg/injection, schedule: Q01DX010 (ip), vehicle: saline): 110, 119, 139, 181 % of control [5 of 6 alive]
- T/C (dose: 0.06 mg/kg/injection, schedule: Q01DX010 (ip), vehicle: saline): 125, 131, 140, 166 % of control
- T/C (dose: 0.12 mg/kg/injection, schedule: Q01DX010 (ip), vehicle: saline): 154, 160, 166, 178 % of control
- T/C (dose: 0.12 mg/kg/injection, schedule: Q01DX Z (ip), vehicle: water): 125 % of control
- T/C (dose: 0.25 mg/kg/injection, schedule: Q01DX010 (ip), vehicle: saline): 113, 116, 144, 177 % of control
- T/C (dose: 0.25 mg/kg/injection, schedule: Q01DX Z (ip), vehicle: water): 125 % of control
- T/C [1]: 91, 93 [4 of 6 alive], 111 % of control [5 of 6 alive]
- survivor count [1]: 4 of 6
- survivor count (dose: 1.0 mg/kg/injection, schedule: Q01DX Z (ip), vehicle: water): 2 of 6

SMILES: Nc1ncnc2c1ccn2C1OC(CO)C(O)C1O (stereo not given)
- survivor count (dose: 1.25 mg/kg/injection, schedule: Q01DX Z (ip), vehicle: carboxymethylcellulose (CMC)): 5 of 6
- survivor count [2]: 6 of 6
- survivor count [3]: 2 of 6

SMILES: CC/C(=C(/CC)c1ccc(O)cc1)c1ccc(O)cc1
- T/C (dose: 12.5 mg/kg/injection, schedule: Q01DX010 (sc), vehicle: steroid suspending solution): 142 % of control
- T/C (dose: 25.0 mg/kg/injection, schedule: Q01DX010 (sc), vehicle: steroid suspending solution): 128 % of control
- survivor count (dose: 125.0 mg/kg/injection, schedule: Q01DX Z (sc), vehicle: steroid suspending solution): 3 of 6 and 5 of 6
- survivor count (dose: 250.0 mg/kg/injection, schedule: Q01DX Z (sc), vehicle: steroid suspending solution): 1 of 6 and 5 of 6
- survivor count (dose: 500.0 mg/kg/injection, schedule: Q01DX Z (sc), vehicle: steroid suspending solution): 1 of 6
